At least one structure is not confirmed: it was looked up by name or label, or the drawing left a doubt.
Assay: Analytical monitoring by HPLC of the hydrolysis of compound 2 into compound 25 in water at 40° C.
Format: physicochemical
Settings: for % compound 25 formed by hydrolysis of compound 2: HPLC

SMILES: CC(=O)Sc1nc[nH]c1C[C@@H](C(=O)O)N(C)C [Compound 2, L-5-acetylsulfanyl-α,N,N(dimethyl)-histidine]
- hydrolysis of compound 2 (extent, in words) (after 8 h): nearly complete
- % compound 25 formed by hydrolysis of compound 2 (t = 0 h): 0%
- % compound 25 formed by hydrolysis of compound 2 (t = 1 h): 14%
- % compound 25 formed by hydrolysis of compound 2 (t = 2 h): 23%
- % compound 25 formed by hydrolysis of compound 2 (t = 3 h): 34%
- % compound 25 formed by hydrolysis of compound 2 (t = 5 h): 49%
- % compound 25 formed by hydrolysis of compound 2 (t = 8 h): 70%

Source: patent publication US20170190691A1, “NOVEL 5-ACYLSULFANYL-HISTIDINE COMPOUNDS AS PRECURSORS OF THE CORRESPONDING 5-SULFANYLHISTIDINES AND THEIR DISULFIDES” (TETRAGEDRON, priority 2014, published 2017)
